From publication PMC3145769 come the findings set out here.

Sequences of proteins named here, by UniProt entry; tags and fusion partners are left off. A change or cut given only in a name is not applied to a line headed by its entry.
UniProt P51943: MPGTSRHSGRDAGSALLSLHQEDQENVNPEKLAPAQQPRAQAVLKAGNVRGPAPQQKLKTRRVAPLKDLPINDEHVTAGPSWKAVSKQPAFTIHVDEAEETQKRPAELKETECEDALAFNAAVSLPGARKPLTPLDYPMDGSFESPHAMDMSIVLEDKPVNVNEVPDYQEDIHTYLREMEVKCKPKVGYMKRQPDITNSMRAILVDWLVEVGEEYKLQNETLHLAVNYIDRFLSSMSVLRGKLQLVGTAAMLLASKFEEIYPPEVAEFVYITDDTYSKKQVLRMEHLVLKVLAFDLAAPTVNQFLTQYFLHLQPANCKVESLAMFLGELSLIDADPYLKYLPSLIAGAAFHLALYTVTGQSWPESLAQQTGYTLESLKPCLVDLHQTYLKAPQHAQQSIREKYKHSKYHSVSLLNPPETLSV

These are yes or no findings as the source states them, for the method shown. In cells and extracts the contact can be indirect.

The target in test [1] is Cyclin A2 Triple (M200A, L204A, W207A), C-terminally fused to 3 Flag tags (mouse) (UniProt P51943). Kind of test: co-IP; anti-Flag M2 affinity gel on extracts of human HEK 293 cells transfected with mouse 3xFlag Cyclin A2 alleles; endogenous partners detected by Western blot; densitometry (ImageQuantTL) normalised to immunoprecipitated Cyclin A2, percent of WT; repeated 3 times. On the technique in general: A western blot detects proteins with antibodies after separation by electrophoresis.

The target in test [2] is Cyclin A2 W207A, C-terminally fused to 3 Flag tags (mouse) (UniProt P51943). The test is described as above.
The target of test [3] is Cyclin A2 Triple (M200A, L204A, W207A), C-terminally fused to 3 Flag tags (mouse) (UniProt P51943). Kind of test: co-IP; anti-Flag M2 affinity gel on extracts of NIH3T3 cells transfected with 3xFlag Cyclin A2 alleles; endogenous partners detected by Western blot; densitometry (ImageQuantTL) normalised to immunoprecipitated Cyclin A2, percent of WT; repeated 5 times.
Test [4] deals with Cyclin A2 W207A, C-terminally fused to 3 Flag tags (mouse) (UniProt P51943). The description is as above.

B1: p107 (endogenous, HEK 293) (protein, UniProt P28749 1-1068)
chain: MFEDKPHAEGAAVVAAAGEALQALCQELNLDEGSAAEALDDFTAIRGNYSLEGEVTHWLACSLYVACRKSIIPTVGKGIMEGNCVSLTRILRSAKLSLIQFFSKMKKWMDMSNLPQEFRERIERLERNFEVSTVIFKKYEPIFLDIFQNPYEEPPKLPRSRKQRRIPCSVKDLFNFCWTLFVYTKGNFRMIGDDLVNSYHLLLCCLDLIFANAIMCPNRQDLLNPSFKGLPSDFHTADFTASEEPPCIIAVLCELHDGLLVEAKGIKEHYFKPYISKLFDRKILKGECLLDLSSFTDNSKAVNKEYEEYVLTVGDFDERIFLGADAEEEIGTPRKFTRDTPLGKLTAQANVEYNLQQHFEKKRSFAPSTPLTGRRYLREKEAVITPVASATQSVSRLQSIVAGLKNAPSDQLINIFESCVRNPVENIMKILKGIGETFCQHYTQSTDEQPGSHIDFAVNRLKLAEILYYKILETVMVQETRRLHGMDMSVLLEQDIFHRSLMACCLEIVLFAYSSPRTFPWIIEVLNLQPFYFYKVIEVVIRSEEGLSRDMVKHLNSIEEQILESLAWSHDSALWEALQVSANKVPTCEEVIFPNNFETGNGGNVQGHLPLMPMSPLMHPRVKEVRTDSGSLRRDMQPLSPISVHERYSSPTAGSAKRRLFGEDPPKEMLMDKIITEGTKLKIAPSSSITAENVSILPGQTLLTMATAPVTGTTGHKVTIPLHGVANDAGEITLIPLSMNTNQESKVKSPVSLTAHSLIGASPKQTNLTKAQEVHSTGINRPKRTGSLALFYRKVYHLASVRLRDLCLKLDVSNELRRKIWTCFEFTLVHCPDLMKDRHLDQLLLCAFYIMAKVTKEERTFQEIMKSYRNQPQANSHVYRSVLLKSIPREVVAYNKNINDDFEMIDCDLEDATKTPDCSSGPVKEERGDLIKFYNTIYVGRVKSFALKYDLANQDHMMDAPPLSPFPHIKQQPGSPRRISQQHSIYISPHKNGSGLTPRSALLYKFNGSPSKSLKDINNMIRQGEQRTKKRVIAIDSDAESPAKRVCQENDDVLLKRLQDVVSERANH
For B1, the binding entry in test [1] and in test [2] was “no binding” throughout.

B2: p21 (endogenous, NIH3T3) (protein, UniProt P39689 1-159)
chain: MSNPGDVRPVPHRSKVCRCLFGPVDSEQLRRDCDALMAGCLQEARERWNFDFVTETPLEGNFVWERVRSLGLPKVYLSPGSRSRDDLGGDKRPSTSSALLQGPAPEDHVALSLSCTLVSERPEDSPGGPGTSQGRKRRQTSLTDFYHSKRRLVFCKRKP
Take B2: the binding result in test [3] is listed as “no binding”.

B3: p107 (endogenous, NIH3T3) (protein, UniProt Q64701 1-1063)
chain: MFEDEPHAEGAAAVAAAREALQALCQELNLDEGSAAEALDDFTAIRGNYSLEGEVIHWLACSLYVACRKSIIPTVGKGVMEGNCVSLTRILRSAKLSLIQFFSKMKKWMDMSNLPQEFRERIERLERNFEVSTVIFKKFEPIFLDIFQNPYEEPPKLPRSRKQRRIPCSVKDLFNFCWTLFVYTKGNFRMIGDDLVNSYHLLLCCLDLIFANAIMCPNRRDLLNPSFKGLPSDFHAPDFKAAEEPPCIIAVLCDLHDGLLVEAKGIKEHYFKPYISKLFDKKILKGECLLDLSSFTDNSKAVNKEYEEYVLTVGDFDERIFLGADAEEEIGTPRKFTADTPFGKLTSQASVECNLQQHFEKKRSFAPSTPLTGRRYLQEKEAVTTPVASATQSVSRLQSIVAGLKSAPSEQLLNIFESCMRNPMGNIIKIVKGIGETFCQHYTQSTDKQPGSHIDFAVNRLKLAEILYYKILETIMVQETRRLHGMDMSVLLEQDIFHKSLMACCLEIVLFAYSSPRTFPWIIEVLDLQPFYFYKVIEVVIRSEEGLSRDMVKHLNSIEEQILESLAWTNNSALWEALHASANRVPSCEEVIFPNNFEIGNGGNVQGHLPMMPMSPIIHPRVKEVRTDSGSLRQDMQPLSPISVHERYSSPAAGSAKRRLFGDDPPKDTLMDKIMAEGTKLKIAPSSVTAESLSISPGQALLTMATTTVTGTTGRKVTVPLHGIANDAGEITLVPISMNPTQESTAESPVSLTAQSLIGTSPKQTHLTKAQDAHLTGVSKPKRTGSLALFYRKVYHLASVRLRDLCLKLDVSNELRRKIWTCFEFTLVHCPDLMKDRHLDQLLLCAFYIMAKVTKEERTFQEIMKSYRNQPQANSHVYRSVLLKSIPGGVVVYNGDCEMTDGDIEDATKTPNCSSEPVKEERGDLIKFYNTVYVGRVKSFALKYDLSNQDHIMDAPPLSPFPHIKQQPGSPRRISQQHSLYVSPHKNGAGLTPRSALLYKFNGSPSKSLKDINNMIRQGEQKTKKRVIAISGDADSPAKRLCQENDDVLLKRLQDVVSERANH
Turning to B3, the binding entry in test [3] and in test [4] was “no binding” throughout.
